Read-outs that look alike come from different tables or passages of the source. The name of at least one read-out is uncertain.
Key:
[1] = LADs of other organisms, from references; cited from earlier work
[2] = Kinetic parameters of LAD from various source organisms; assay type: biochemical; conditions: N. crassa LAD
Experimental: Initial rates were determined using a Varian Cary 100 Bio UV-visible spectrophotometer (Varian) at 25° C. in 50 mM Tris (pH 8.0). […] Kinetic measurements with substrate L-arabinitol and cofactor NAD^+ were taken in a 5-by-5 matrix format, with substrate and cofactor concentrations varied from below their Km to 10-fold higher than their Km. The kinetic data were analyzed with a modified version of Cleland's program (Cleland, W. W. (1979) Statistical analysis of enzyme kinetic data, Methods Enzymol 63, 103-138.). Vmax and Km for both L-arabinitol and NAD^+ were obtained by fitting the data to a sequential ordered mechanism with NAD^+ binding first, based on the proposed mechanism for sorbitol dehydrogenase (Lindstad et al. (1992) The kinetic mechanism of sheep liver sorbitol dehydrogenase, Eur J Biochem 210, 641-647.) v=VmaxAB/(KiaKB+KAB+KBA+AB) (EQ. 1)

[3] = F59 mutant kinetic analysis, substrate L-arabinitol; assay type: biochemical; conditions: 25° C., 50 mM Tris pH 8.0, NAD+ 2 mM
Experimental: (§1) Initial rates were determined using a Varian Cary 100 Bio UV-visible spectrophotometer (Varian) at 25° C. in 50 mM Tris (pH 8.0). […] This is the first reported detection of NADP^+ utilization by LAD, although it is still considered a strongly NAD^+-dependent enzyme. Kinetic measurements with substrate L-arabinitol and cofactor NAD^+ were taken in a 5-by-5 matrix format, with substrate and cofactor concentrations varied from below their Km to 10-fold higher than their Km. The kinetic data were analyzed with a modified version of Cleland's program (Cleland, W. W. (1979) Statistical analysis of enzyme kinetic data, Methods Enzymol 63, 103-138.). Vmax and Km for both L-arabinitol and NAD^+ were obtained by fitting the data to a sequential ordered mechanism with NAD^+ binding first, based on the proposed mechanism for sorbitol dehydrogenase (Lindstad et al. (1992) The kinetic mechanism of sheep liver sorbitol dehydrogenase, Eur J Biochem 210, 641-647.) v=VmaxAB/(KiaKB+KAB+KBA+AB) (EQ. 1)
(§2) Activity assays were run for three mutants of N. crassa LAD (F59A, F59S, and F59Y) to study the effect of mutation of this active site, putative substrate binding residue homologous to tyrosine in other SDHs. […]

[4] = F59 mutant kinetic analysis, substrate xylitol; assay type: biochemical; conditions: 25° C., 50 mM Tris pH 8.0, NAD+ 2 mM
Experimental: as §1, §2

[5] = F59 mutant kinetic analysis, substrate adonitol; assay type: biochemical; conditions: 25° C., 50 mM Tris pH 8.0, NAD+ 2 mM
Experimental: as §1, §2

[6] = Thermal inactivation and storage stability of LAD; assay type: physicochemical; conditions: 50° C., 50 mM Tris pH 8.0; first-order, irreversible

Row | Substance | kcat/Km,L-arabinitol [1] [M⁻¹ s⁻¹] | kcat/Km,L-arabinitol [2] [M⁻¹ s⁻¹] | kcat/Km [3] [M⁻¹ s⁻¹] | kcat/Km [4] [M⁻¹ s⁻¹] | kcat/Km [5] [M⁻¹ s⁻¹] | half-life of thermal inactivation [6] [min]
1 | H. jecorina: L-arabinitol 4-dehydrogenase from Hypocrea jecorina (literature; two table lines from different references) | 183 |  |  |  |  | 
2 | N. crassa LAD: NAD+-dependent L-arabinitol 4-dehydrogenase from Neurospora crassa, 363 residues, SEQ ID NO: 1, recombinantly expressed in E. coli |  | 1250 | 1120 | 55 | 517 | 45

Reference: US8114638B2, “Arabinitol dehydrogenase from Neurospora crassa” (The Board of Trustees of the University of Illinois, priority 2007, dated 2012)
